Protein sequences, listed by entry. Tags and fused reporters are not part of them.
UniProt P20700: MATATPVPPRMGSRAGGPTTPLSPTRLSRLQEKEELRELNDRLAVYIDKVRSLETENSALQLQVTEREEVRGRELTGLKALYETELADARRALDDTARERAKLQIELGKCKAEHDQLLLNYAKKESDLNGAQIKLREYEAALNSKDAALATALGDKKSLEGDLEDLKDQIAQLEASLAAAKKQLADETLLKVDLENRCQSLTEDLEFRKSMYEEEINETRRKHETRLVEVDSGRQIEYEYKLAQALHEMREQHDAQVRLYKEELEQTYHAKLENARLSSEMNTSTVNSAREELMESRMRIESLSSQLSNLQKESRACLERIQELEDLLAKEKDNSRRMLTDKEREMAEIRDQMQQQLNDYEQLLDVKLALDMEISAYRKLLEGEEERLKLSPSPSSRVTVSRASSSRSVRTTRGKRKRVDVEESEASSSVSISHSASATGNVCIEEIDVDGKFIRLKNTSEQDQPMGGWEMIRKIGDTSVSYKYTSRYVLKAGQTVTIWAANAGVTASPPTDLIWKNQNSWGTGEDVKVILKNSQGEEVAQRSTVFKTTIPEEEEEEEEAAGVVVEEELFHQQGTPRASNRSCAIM

In publication doi:10.1101/2025.08.13.670143:

Biological target: V5-BirA-Lamin B1 (Lamin B1 with an N-terminal V5 epitope tag and mini-Turbo BirA) (UniProt P20700)
Experiment: proximity labelling

binding: binds
Substance: hnRNPK (from UniProt P61978 1-463)

Results are given in words; binding and its absence hold for the method and conditions named. In cells and extracts the contact can be indirect. Here binding means that the protein was enriched with, or labelled near, the bait; the list need not be complete.
